Measurements: publication PMC3551867

Tested on: T1, GlyR2 (AraC/XylS family regulator)
T1 sequence (looked up): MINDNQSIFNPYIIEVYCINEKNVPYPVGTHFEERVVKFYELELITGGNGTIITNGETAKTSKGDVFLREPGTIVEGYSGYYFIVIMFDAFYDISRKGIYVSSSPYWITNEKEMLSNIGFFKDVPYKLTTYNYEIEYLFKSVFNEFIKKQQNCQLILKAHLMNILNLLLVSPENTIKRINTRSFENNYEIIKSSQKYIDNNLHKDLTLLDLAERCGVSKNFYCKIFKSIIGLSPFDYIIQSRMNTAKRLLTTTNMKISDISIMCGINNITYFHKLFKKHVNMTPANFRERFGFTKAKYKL
Assay: EMSA
Details: 10 ug sonicated herring sperm DNA, EMSA: 1x LightShift binding buffer (Pierce), 25-30 fmol probe, ~2 ug (57 pmol) GlyR2, recombinant protein, residues 1-300, protein details: C-terminal His6 (pET22b+, NdeI/XhoI), label: 3'-biotin, probe letters rebuilt from the primers and the genome

Row | Sequence | binding result (100x unlabeled glyR2 probe competes) | binding result (100x unlabeled cel5D probe competes)
1 | CAATTTCTAGTATTAATATAATGATAACACATATAGGTACTTCTGTGGTATAAGAATTTTTAATAATTGAGTAATATATTACAATTGAGTGCTATGTGACAATTGTATTCGAAGATGTCAGTTTATATAATTAAATTAGATAATATGTAAAATTAATACAGGGGGGATTTTTAATGAAAAAGATATTAGCACTGATTATATCGTGCAGTATTATTATGAGCTTTTTACCTATGTCTGTCTATGGTGCTATCAATTCTCAGGATATGGTAAAAAAGATGGGAATAGGAATGAACCTTGGAAATACGTTTGACGCACCAACGGAAGGTTCTTGGTCAAAGGCAGCTCAGGAGTACTATTTTGATGATTTTAAACAGGCCGGTTTCAAGCATGTTAGAATTCCAATCCGTTGGGATCAGCATACACTT (double strand) [PglyR2 probe (425 bp)] | binds | 
2 | GGCGTCGAACTGGAAAGTGCTTTTTAACATTATGAAAGAATAAAAATTAGTACTATTTAAATCCTAGTAAGGAAGATAGTATGATTAATGACAATCAATCAATATTTAATCCCTATATTATTGAGGTTTATTGCATCAACGAAAAAAATGTCCCCTATCCTGTAGGAACCCATTTTGAAGAGAGAGTTGTCAAGTTCTATGAGCTTGAACTAATTACAGGAGGAAATGGAACTATTATTACCAACGGTGAAACTGCTAAAACCTCAAAAGGAGATGTGTTTTTAAGAGAGCCCGGCACAATAGTTGAAGGATATTCTGGTTATTATTTTATTGTCATTATGTTTGACGCTTTTTATGATATATCCAGAAAAGGTATTTACGTAAGCTCTTCCCCTTATTGGATTACAAATG (double strand) [Pcel5D probe (411 bp)] |  | binds

Where a protein sequence is shown, tags need not be part of it.
